Experimental data published in US20020054941A1, “Methods and compositions to enhance tenderness and value of meat” (The Board of Regents of the University of Nebraska, priority 2000, published 2002).
Marks after values point to notes of the source that are not given here.

How the values were obtained:
[1] = system: triceps brachii beef muscles; assay: NAD and NADH content, pre-rigor injection of whole muscle; conditions: for NAD, 0 h / NADH, 0 h: 0 h (before injection); for NAD, 24 h / NADH, 24 h / NAD, 72 h / NADH, 72 h: 200 mM, calcium chloride 300 mM
[2] = system: triceps brachii beef muscles; assay: Oxidation-reduction potential, pre-rigor injection of whole muscle; conditions: 200 mM, calcium chloride 300 mM
[3] = system: supraspinatus beef muscles; assay: as above; conditions: for Redox potential, 0 h: 0 h (before injection); for Redox potential, 24 h / Redox potential, 72 h: 200 mM, calcium chloride 300 mM
[4] = system: supraspinatus beef muscles; assay: NAD and NADH content, pre-rigor injection of whole muscle; conditions: for NAD, 0 h / NADH, 0 h: 0 h (before injection); for NAD, 24 h / NADH, 24 h / NAD, 72 h / NADH, 72 h: 200 mM, calcium chloride 300 mM
[5] = system: triceps brachii beef muscles; assay: R-value, pre-rigor injection of whole muscle; conditions: 200 mM, calcium chloride 300 mM
[6] = system: supraspinatus beef muscles; assay: Objective color, pre-rigor injection of whole muscle; conditions: for L*value, 0 h / a*value, 0 h / b*value, 0 h: 0 h (before injection); for L*value, 0 h / L*value, 24 h / L*value, 72 h: lightness; for a*value, 0 h / a*value, 24 h / a*value, 72 h: redness; for b*value, 0 h / b*value, 24 h / b*value, 72 h: yellowness; for L*value, 24 h / a*value, 24 h / b*value, 24 h / L*value, 72 h / a*value, 72 h / b*value, 72 h: 200 mM, calcium chloride 300 mM
[7] = system: triceps brachii beef muscles; assay: Sarcomere length, pre-rigor injection of whole muscle; conditions: 72 hours after injection; 200 mM, calcium chloride 300 mM
[8] = system: semimembranosus beef muscles; assay: Water holding capacity, pre-rigor injection of whole muscle; conditions: 200 mM, calcium chloride 300 mM
[9] = system: semimembranosus beef muscles; assay: Oxidation-reduction potential, pre-rigor injection of whole muscle; conditions: for Redox potential, 0 h: 0 h (before injection); for Redox potential, 24 h / Redox potential, 72 h: 200 mM, calcium chloride 300 mM
[10] = system: supraspinatus beef muscles; assay: R-value, pre-rigor injection of whole muscle; conditions: for R-value, 0 h: 0 h (before injection), ratio of hypoxantine to nucleotides; for R-value, 24 h / R-value, 72 h: 200 mM, calcium chloride 300 mM
[11] = system: semimembranosus beef muscles; assay: R-value, pre-rigor injection of whole muscle; conditions: for R-value, 0 h: 0 h (before injection), ratio of hypoxantine to nucleotides; for R-value, 72 h: 200 mM, calcium chloride 300 mM
[12] = system: semimembranosus beef muscles; assay: NAD and NADH content, pre-rigor injection of whole muscle; conditions: for NAD, 0 h / NADH, Oh: 0 h (before injection); for NAD, 24 h / NADH, 24 h / NAD, 72 h / NADH, 72 h: 200 mM, calcium chloride 300 mM
[13] = system: semimembranosus beef muscles; assay: Sarcomere length, pre-rigor injection of whole muscle; conditions: 72 hours post-mortem, 200 mM, calcium chloride 300 mM
[14] = system: triceps brachii beef muscles; assay: Objective color, pre-rigor injection of whole muscle; conditions: for L*value, 0 h / a*value, 0 h / b*value, 0 h: 0 h (before injection); for L*value, 0 h / L*value, 24 h / L*value, 72 h: lightness; for a*value, 0 h / a*value, 24 h: redness; for b*value, 0 h / b*value, 24 h / b*value, 72 h: yellowness; for L*value, 24 h / a*value, 24 h / b*value, 24 h / L*value, 72 h / b*value, 72 h: 200 mM, calcium chloride 300 mM
[15] = system: triceps brachii beef muscles; assay: Water holding capacity, pre-rigor injection of whole muscle; conditions: 200 mM, calcium chloride 300 mM

Structure (SMILES): O=C([O-])CC(O)(CC(=O)[O-])C(=O)[O-].[Na+].[Na+].[Na+] [Sodium citrate, sodium citrate]
- NAD, 0 h [1]: .421 μmol/g tissue
- NADH, 0 h [1]: .093 μmol/g tissue
- NAD, 24 h [1]: .269^a μmol/g tissue
- NADH, 24 h [1]: .067 μmol/g tissue
- NAD, 72 h [1]: .146^a μmol/g tissue
- NADH, 72 h [1]: .051 μmol/g tissue
- Redox potential, 24 h [2]: 125.05 mV
- Redox potential, 72 h [2]: 133.65 mV
- Redox potential, 0 h [3]: 124.37 mV
- Redox potential, 24 h [3]: 118.17 mV
- Redox potential, 72 h [3]: 125.05 mV
- NAD, 0 h [4]: .387 μmol/g tissue
- NADH, 0 h [4]: .073 μmol/g tissue
- NAD, 24 h [4]: .148^ab μmol/g tissue
- NADH, 24 h [4]: .056 μmol/g tissue
- NAD, 72 h [4]: .098^ab μmol/g tissue
- NADH, 72 h [4]: .035^a μmol/g tissue
- R-value, 24 h [5]: 1.30
- R-value, 72 h [5]: 1.36
- L*value, 0 h [6]: 21.99
- a*value, 0 h [6]: 17.50
- b*value, 0 h [6]: 3.68
- L*value, 24 h [6]: 29.88
- a*value, 24 h [6]: 22.83^ab
- b*value, 24 h [6]: 6.29^ab
- L*value, 72 h [6]: 30.51
- a*value, 72 h [6]: 20.87
- b*value, 72 h [6]: 5.59
- Sarcomere length [7]: 1.62^b μm
- WHC, 72 h (Water Holding Capacity) [8]: 41.99%
- Redox potential, 0 h [9]: 124.55 mV
- Redox potential, 24 h [9]: 128.85^a mV
- Redox potential, 72 h [9]: 132.67^bc mV
- R-value, 0 h [10]: .84
- R-value, 24 h [10]: 1.27
- R-value, 72 h [10]: 1.38
- R-value, 0 h [11]: .83
- R-value, 72 h [11]: 1.38
- NAD, 0 h [12]: .568 μmol/g tissue
- NADH, Oh [12]: .121 μmol/g tissue
- NAD, 24 h [12]: .306^b μmol/g tissue
- NADH, 24 h [12]: .072^a μmol/g tissue
- NAD, 72 h [12]: .173^ab μmol/g tissue
- NADH, 72 h [12]: .066^b μmol/g tissue
- Sarcomere length [13]: 1.72^ab μm
- L*value, 0 h [14]: 22.22
- a*value, 0 h [14]: 14.38
- b*value, 0 h [14]: 2.89
- L*value, 24 h [14]: 28.52
- a*value, 24 h [14]: 24.54
- b*value, 24 h [14]: 6.56
- L*value, 72 h [14]: 29.56
- b*value, 72 h [14]: 5.73
- WHC, 72 h (Water Holding Capacity) [15]: 37.76%

Structure (SMILES): [F-].[Na+] [Sodium fluoride, sodium fluoride, reference compound]
- NAD, 0 h [1]: .450 μmol/g tissue
- NADH, 0 h [1]: .078 μmol/g tissue
- NAD, 24 h [1]: .261^a μmol/g tissue
- NADH, 24 h [1]: .060 μmol/g tissue
- NAD, 72 h [1]: .113^a μmol/g tissue
- NADH, 72 h [1]: .055 μmol/g tissue
- Redox potential, 24 h [2]: 131.35 mV
- Redox potential, 72 h [2]: 139.78 mV
- Redox potential, 0 h [3]: 124.17 mV
- Redox potential, 24 h [3]: 131.45 mV
- Redox potential, 72 h [3]: 136.70 mV
- NAD, 0 h [4]: .384 μmol/g tissue
- NADH, 0 h [4]: .078 μmol/g tissue
- NAD, 24 h [4]: .216^a μmol/g tissue
- NADH, 24 h [4]: .056 μmol/g tissue
- NAD, 72 h [4]: .078^a μmol/g tissue
- NADH, 72 h [4]: .045^b μmol/g tissue
- R-value, 24 h [5]: 1.28
- R-value, 72 h [5]: 1.38
- L*value, 0 h [6]: 22.55
- a*value, 0 h [6]: 15.23
- b*value, 0 h [6]: 2.81
- L*value, 24 h [6]: 28.71
- a*value, 24 h [6]: 20.78^a
- b*value, 24 h [6]: 5.32^a
- L*value, 72 h [6]: 28.21
- a*value, 72 h [6]: 16.66
- b*value, 72 h [6]: 5.41
- Sarcomere length [7]: 1.41^b μm
- WHC, 72 h (Water Holding Capacity) [8]: 38.22%
- Redox potential, 0 h [9]: 125.95 mV
- Redox potential, 24 h [9]: 130.07^a mV
- Redox potential, 72 h [9]: 140.70^ab mV
- R-value, 0 h [10]: .79
- R-value, 24 h [10]: 1.28
- R-value, 72 h [10]: 1.37
- R-value, 0 h [11]: .85
- R-value, 72 h [11]: 1.42
- NAD, 0 h [12]: .551 μmol/g tissue
- NADH, Oh [12]: .130 μmol/g tissue
- NAD, 24 h [12]: .281^b μmol/g tissue
- NADH, 24 h [12]: .098^b μmol/g tissue
- NAD, 72 h [12]: .096^c μmol/g tissue
- NADH, 72 h [12]: .061^ab μmol/g tissue
- Sarcomere length [13]: 1.53^bc μm
- Sarcomere length ([13]; listed as NaF): 1.53 μm
- L*value, 0 h [14]: 20.76
- a*value, 0 h [14]: 16.23
- b*value, 0 h [14]: 3.17
- L*value, 24 h [14]: 29.58
- a*value, 24 h [14]: 22.40
- b*value, 24 h [14]: 6.05
- L*value, 72 h [14]: 28.26
- b*value, 72 h [14]: 6.39
- WHC, 72 h (Water Holding Capacity) [15]: 35.27%
